The supplement of paper PMC5836539
± gives the standard deviation of the averaged measurements. Single values are uncertain here, since repeats match poorly.

Protein sequences, listed by entry. Tags and fused reporters are not part of them. Lines headed by an entry give the natural chain unless they say otherwise; changes in a name come on top.
UniProt Q92614: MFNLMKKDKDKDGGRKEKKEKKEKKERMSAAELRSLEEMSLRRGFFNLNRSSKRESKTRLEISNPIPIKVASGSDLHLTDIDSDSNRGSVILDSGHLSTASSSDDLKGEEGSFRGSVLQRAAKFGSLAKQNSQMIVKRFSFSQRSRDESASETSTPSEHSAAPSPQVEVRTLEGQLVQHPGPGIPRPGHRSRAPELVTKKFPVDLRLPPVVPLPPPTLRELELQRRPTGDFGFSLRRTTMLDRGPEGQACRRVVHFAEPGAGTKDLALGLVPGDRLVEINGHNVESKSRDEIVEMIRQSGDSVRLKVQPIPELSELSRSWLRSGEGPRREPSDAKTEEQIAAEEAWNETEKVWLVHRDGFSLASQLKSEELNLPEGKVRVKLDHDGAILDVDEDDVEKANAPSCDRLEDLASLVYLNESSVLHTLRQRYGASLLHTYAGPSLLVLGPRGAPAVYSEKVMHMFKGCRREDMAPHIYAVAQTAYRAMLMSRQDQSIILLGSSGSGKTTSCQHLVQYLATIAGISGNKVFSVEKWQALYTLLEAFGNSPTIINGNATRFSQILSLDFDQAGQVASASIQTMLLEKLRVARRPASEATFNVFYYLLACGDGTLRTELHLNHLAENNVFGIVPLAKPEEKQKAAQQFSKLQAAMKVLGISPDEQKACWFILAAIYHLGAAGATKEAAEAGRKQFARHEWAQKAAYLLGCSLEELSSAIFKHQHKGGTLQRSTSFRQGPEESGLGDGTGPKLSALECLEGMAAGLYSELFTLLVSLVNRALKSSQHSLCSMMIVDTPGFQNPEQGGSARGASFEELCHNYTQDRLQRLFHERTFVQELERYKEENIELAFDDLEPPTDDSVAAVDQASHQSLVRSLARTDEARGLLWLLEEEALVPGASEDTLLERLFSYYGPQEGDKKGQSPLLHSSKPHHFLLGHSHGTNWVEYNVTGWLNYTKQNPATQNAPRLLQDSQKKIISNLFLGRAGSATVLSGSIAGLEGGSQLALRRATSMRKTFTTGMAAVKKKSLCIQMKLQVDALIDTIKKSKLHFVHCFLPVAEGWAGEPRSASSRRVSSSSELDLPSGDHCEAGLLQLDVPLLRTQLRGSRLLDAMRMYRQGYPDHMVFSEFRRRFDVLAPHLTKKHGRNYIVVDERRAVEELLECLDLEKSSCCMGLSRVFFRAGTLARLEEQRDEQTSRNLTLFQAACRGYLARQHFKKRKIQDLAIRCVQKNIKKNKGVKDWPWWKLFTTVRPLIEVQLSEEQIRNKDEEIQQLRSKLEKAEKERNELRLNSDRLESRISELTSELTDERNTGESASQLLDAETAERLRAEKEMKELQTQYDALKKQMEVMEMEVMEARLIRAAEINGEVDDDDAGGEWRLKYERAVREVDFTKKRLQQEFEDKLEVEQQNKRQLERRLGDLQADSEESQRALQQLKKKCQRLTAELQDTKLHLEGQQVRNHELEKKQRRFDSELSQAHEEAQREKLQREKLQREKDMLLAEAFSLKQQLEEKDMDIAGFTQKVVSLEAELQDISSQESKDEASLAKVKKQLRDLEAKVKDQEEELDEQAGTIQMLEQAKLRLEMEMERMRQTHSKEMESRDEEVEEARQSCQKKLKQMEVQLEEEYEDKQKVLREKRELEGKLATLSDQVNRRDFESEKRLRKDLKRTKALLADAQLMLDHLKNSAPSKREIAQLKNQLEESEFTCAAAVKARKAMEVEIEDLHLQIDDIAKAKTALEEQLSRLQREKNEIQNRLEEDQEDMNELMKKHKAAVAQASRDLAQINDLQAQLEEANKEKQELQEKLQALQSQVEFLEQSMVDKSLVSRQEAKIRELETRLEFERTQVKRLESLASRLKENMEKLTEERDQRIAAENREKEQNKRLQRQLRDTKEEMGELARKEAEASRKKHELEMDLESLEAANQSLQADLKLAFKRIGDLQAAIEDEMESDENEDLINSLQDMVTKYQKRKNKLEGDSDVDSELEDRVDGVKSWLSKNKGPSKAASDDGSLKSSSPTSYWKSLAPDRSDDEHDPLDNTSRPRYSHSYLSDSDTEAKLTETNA
UniProt O43290: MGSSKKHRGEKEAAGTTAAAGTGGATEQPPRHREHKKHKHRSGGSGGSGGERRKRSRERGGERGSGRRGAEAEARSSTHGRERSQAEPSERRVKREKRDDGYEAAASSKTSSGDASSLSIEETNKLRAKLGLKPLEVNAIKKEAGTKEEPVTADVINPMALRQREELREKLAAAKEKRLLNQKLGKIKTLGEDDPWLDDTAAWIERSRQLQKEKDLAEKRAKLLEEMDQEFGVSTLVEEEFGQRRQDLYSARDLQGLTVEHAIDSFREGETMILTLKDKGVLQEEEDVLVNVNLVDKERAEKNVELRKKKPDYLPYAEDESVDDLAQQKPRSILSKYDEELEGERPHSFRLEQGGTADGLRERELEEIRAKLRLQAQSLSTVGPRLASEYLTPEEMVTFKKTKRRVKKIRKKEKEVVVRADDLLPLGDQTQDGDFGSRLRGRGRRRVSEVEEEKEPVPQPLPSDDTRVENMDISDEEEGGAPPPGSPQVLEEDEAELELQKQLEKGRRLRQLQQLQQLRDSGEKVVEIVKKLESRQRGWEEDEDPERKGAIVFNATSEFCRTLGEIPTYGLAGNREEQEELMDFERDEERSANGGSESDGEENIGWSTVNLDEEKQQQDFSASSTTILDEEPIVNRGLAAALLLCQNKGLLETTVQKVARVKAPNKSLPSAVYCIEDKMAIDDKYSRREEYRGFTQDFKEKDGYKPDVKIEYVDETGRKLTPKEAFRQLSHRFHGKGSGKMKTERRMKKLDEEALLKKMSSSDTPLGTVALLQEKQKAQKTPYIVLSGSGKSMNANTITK
UniProt Q05655: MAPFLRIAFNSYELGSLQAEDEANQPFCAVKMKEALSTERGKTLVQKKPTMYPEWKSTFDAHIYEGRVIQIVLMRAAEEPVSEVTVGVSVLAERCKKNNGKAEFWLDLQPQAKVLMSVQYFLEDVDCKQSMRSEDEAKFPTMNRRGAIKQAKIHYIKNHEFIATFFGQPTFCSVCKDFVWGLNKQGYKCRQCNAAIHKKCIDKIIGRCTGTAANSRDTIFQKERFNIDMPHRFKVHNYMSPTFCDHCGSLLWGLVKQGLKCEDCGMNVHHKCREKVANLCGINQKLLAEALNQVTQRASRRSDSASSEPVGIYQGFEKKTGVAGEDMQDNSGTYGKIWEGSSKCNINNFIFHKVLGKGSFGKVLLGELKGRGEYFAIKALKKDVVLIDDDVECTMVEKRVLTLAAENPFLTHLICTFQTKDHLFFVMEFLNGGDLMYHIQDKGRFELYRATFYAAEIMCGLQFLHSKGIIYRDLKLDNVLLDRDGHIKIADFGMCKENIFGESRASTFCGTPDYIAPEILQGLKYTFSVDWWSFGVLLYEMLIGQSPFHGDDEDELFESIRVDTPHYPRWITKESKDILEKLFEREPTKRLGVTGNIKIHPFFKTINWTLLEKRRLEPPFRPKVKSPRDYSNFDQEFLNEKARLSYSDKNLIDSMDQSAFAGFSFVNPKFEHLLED
UniProt O43719: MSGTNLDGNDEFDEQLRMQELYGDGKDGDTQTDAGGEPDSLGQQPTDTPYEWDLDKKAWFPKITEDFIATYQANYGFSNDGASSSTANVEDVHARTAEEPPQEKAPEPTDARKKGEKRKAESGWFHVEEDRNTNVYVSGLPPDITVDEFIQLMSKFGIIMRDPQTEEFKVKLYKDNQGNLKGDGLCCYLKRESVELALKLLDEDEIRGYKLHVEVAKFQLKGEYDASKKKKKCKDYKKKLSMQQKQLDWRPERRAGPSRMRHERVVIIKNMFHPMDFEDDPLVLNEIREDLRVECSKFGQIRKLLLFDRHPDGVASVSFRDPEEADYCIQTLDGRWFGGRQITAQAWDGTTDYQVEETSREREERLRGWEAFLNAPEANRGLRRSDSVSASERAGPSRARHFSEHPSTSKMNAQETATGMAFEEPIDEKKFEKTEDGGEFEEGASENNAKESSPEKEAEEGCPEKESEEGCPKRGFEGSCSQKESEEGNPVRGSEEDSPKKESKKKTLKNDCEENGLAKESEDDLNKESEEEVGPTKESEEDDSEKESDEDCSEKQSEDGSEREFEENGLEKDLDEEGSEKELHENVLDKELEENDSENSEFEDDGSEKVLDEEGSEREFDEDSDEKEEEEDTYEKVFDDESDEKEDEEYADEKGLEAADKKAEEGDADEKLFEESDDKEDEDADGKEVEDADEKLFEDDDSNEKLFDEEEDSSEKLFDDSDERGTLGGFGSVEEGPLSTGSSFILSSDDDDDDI
UniProt Q12888: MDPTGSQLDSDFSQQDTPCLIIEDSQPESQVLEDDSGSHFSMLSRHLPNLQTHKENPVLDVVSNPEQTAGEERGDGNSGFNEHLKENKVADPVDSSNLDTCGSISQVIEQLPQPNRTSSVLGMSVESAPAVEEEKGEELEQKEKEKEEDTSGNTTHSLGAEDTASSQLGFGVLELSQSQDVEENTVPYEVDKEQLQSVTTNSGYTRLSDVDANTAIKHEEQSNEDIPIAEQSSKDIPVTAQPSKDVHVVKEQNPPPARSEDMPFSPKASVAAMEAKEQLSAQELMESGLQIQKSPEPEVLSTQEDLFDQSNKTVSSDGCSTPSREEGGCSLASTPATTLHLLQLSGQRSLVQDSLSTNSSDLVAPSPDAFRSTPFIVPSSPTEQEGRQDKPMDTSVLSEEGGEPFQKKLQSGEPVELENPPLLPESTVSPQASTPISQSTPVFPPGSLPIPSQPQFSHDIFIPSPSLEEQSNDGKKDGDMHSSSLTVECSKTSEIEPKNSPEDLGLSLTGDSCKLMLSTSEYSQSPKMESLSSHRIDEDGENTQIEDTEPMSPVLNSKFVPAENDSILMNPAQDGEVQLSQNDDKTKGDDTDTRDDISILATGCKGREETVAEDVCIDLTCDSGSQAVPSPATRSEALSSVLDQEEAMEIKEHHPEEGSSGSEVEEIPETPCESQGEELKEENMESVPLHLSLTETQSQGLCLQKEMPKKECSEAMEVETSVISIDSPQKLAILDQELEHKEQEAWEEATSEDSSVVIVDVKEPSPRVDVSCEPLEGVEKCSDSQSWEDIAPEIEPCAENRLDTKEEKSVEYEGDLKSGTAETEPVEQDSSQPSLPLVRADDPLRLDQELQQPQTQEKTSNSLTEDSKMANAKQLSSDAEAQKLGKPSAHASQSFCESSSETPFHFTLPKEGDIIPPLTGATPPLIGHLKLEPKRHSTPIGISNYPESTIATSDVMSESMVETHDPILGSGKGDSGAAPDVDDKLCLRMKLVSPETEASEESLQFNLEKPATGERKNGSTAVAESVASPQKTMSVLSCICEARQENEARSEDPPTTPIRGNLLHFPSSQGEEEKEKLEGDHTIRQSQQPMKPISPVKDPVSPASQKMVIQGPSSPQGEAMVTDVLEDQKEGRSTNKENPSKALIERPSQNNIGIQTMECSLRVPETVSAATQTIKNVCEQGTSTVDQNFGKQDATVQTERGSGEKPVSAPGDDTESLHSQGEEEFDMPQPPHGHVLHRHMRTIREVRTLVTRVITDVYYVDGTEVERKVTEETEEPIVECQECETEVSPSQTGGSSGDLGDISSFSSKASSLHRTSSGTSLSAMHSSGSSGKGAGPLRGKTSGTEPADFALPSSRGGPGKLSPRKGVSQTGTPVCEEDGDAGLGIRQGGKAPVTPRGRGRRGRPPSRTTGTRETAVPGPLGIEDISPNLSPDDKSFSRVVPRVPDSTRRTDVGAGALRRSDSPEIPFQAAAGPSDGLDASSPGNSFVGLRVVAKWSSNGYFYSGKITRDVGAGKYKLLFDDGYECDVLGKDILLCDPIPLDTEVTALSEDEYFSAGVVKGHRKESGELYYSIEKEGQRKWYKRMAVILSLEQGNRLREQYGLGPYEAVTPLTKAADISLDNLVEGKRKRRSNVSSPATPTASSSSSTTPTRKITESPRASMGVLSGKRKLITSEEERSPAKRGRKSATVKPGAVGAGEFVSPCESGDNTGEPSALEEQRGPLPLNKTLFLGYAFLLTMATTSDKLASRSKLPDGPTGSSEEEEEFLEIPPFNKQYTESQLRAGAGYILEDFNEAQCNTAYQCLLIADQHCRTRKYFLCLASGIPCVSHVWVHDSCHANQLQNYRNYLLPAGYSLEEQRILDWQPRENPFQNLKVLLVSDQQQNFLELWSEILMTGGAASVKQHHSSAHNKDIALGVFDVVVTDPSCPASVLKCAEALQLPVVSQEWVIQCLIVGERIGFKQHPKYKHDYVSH
UniProt P29692: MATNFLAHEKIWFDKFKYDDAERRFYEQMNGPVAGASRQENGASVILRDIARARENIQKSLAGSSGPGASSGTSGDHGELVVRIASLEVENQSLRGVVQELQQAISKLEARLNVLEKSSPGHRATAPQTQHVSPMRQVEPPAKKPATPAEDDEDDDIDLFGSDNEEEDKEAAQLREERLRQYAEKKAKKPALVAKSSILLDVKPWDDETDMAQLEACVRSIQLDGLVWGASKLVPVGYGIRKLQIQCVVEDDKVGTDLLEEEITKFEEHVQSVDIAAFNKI

compound: CC[C@@H](C)Nc1cc(C(=O)N[C@H]2C[C@H]3CC[C@@H](C2)N3c2ccc(C(=O)C3CC3)cn2)c(C)cc1C(N)=O [XL888]; assay: phosphopeptide melting temperature shift (XL888 minus DMSO); higher = stabilised by drug treatment; settings: 100 µM; treatment time 2 h; layout: intact cells; SK-Mel 28
Description: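 Phospho-TPP in intact SK-Mel 28 cells treated with 100 uM XL888 or DMSO for 2 h, heated at 10 temperatures (37-67 C) for 3 min, soluble fraction TMT10plex-labelled and TiO2 phospho-enriched. Melting curves were fitted per phosphopeptide; the value is the melting point difference (drug minus vehicle) in each of two biological replicates.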

Row | Target | phosphopeptide melting temperature shift
1 | UniProt Q15149_phosphosite_4382 (phosphosite position: 4382) | -0.487 ± 0.85 °C
2 | MYO18A phosphosite_1970 (phosphosite position: 1970) (UniProt Q92614) | 0.71 ± 0.6 °C
3 | SART1 phosphosite_448 (phosphosite position: 448) (UniProt O43290) | 3.43 °C
4 | UniProt Q8NG27-3_phosphosite_222 (phosphosite position: 222) | 1.49 °C
5 | UniProt P16383_phosphosite_429 (phosphosite position: 429) | -1.14 °C
6 | TXNDC9 phosphosite_221 (phosphosite position: 221) (UniProt O14530) | 0.668 °C
7 | UniProt Q68DA7_phosphosite_842 (phosphosite position: 842) | 3.3 °C
8 | IGF2R phosphosite_2479 (phosphosite position: 2479) (UniProt P11717) | -4.66 °C
9 | UniProt P42677_phosphosite_11 (phosphosite position: 11) | 0.334 °C
10 | EIF6 phosphosite_239 (phosphosite position: 239) (UniProt P56537) | -1.11 ± 2.4 °C
11 | ZBTB7A phosphosite_549 (phosphosite position: 549) (UniProt O95365) | 2.2 °C
12 | UniProt Q9UEY8-2_phosphosite_641 (phosphosite position: 641) | -1.47 °C
13 | UniProt Q9Y2K7-3_phosphosite_713 (phosphosite position: 713) | 2.38 °C
14 | UniProt Q05655_phosphosite_304 (phosphosite position: 304) | -0.184 °C
15 | HTATSF1 phosphosite_616 (phosphosite position: 616) (UniProt O43719) | 0.766 ± 0.95 °C
16 | RBM25 phosphosite_583 (phosphosite position: 583) (UniProt P49756) | 0.763 °C
17 | OSBP phosphosite_351 (phosphosite position: 351) (UniProt P22059) | -1.15 ± 0.2 °C
18 | TP53BP1 phosphosite_1759 (phosphosite position: 1759) (UniProt Q12888) | 2.76 ± 0.45 °C
19 | ANAPC4 phosphosite_777 (phosphosite position: 777) (UniProt Q9UJX5) | 0.52 ± 2.2 °C
20 | UniProt Q641Q2-2_phosphosite_539 (phosphosite position: 539) | 0.375 °C
21 | EEF1D phosphosite_162 (phosphosite position: 162) (UniProt P29692) | 0.749 ± 0.42 °C
22 | UniProt O60256-4_phosphosite_141 (phosphosite position: 141) | -0.631 ± 2.3 °C
23 | UniProt Q96S38-2_phosphosite_415 (phosphosite position: 415) | -0.445 °C
24 | UniProt Q9Y4F5-3_phosphosite_1234 (phosphosite position: 1234) | 1.93 ± 0.99 °C
25 | RAB11FIP5 phosphosite_307 (phosphosite position: 307) (UniProt Q9BXF6) | 2.9 °C
26 | UniProt Q0GE19-3_phosphosite_266 (phosphosite position: 266) | 0.632 ± 2.1 °C
27 | SEC62 phosphosite_158 (phosphosite position: 158) (UniProt Q99442) | -0.143 °C

Pulled one by one from the entries so far, two records:
Row | Target | phosphopeptide melting temperature shift
9 | UniProt P42677_phosphosite_11 (phosphosite position: 11) | 0.334 °C
3 | SART1 phosphosite_448 (phosphosite position: 448) (UniProt O43290) | 3.43 °C
